# Percent effect of library compounds

Protein sequences, listed by entry. Tags and fused reporters are not part of them.
UniProt P9WNZ1, whole entry: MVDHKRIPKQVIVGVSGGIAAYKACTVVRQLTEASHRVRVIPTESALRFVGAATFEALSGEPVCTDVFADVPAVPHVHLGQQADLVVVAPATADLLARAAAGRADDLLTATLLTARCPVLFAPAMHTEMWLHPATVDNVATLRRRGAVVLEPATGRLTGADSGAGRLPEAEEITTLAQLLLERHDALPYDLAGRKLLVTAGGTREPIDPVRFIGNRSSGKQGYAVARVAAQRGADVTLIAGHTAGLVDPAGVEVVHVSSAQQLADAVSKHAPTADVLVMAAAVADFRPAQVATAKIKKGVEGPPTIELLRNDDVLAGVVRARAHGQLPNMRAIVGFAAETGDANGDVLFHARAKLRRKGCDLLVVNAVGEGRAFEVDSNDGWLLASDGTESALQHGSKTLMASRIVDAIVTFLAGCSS

Leishmania in macrophages: 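Cell assay of Leishmania donovani living inside macrophages; the read-out is not stated. Tested at 30 µM. Direction is inferred from retests: higher values go with stronger inhibition. Of about 69,000 compounds tested this way, about 1,000 (1.5%) reached 50% or more in at least one test.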
CoaBC: 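Enzyme assay of CoaBC with a phosphate dye (Biomol Green) read at 650 nm. Target: Coenzyme A biosynthesis protein CoaBC, Mycobacterium tuberculosis (UniProt P9WNZ1). Concentration: 30 µM. Direction is inferred from only a few compounds that gave an IC50; most scored high, so higher reads as stronger inhibition. Most strong results did not repeat in a second test. Size under these conditions: about 67,000 compounds, about 40 of them at 50% or above in at least one test.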

The filed quantity is “Percent Effect” (%). How 0% and 100% were set is not recorded. Most values in the screen are low, and negative values occur. The compounds are a random part of those screened. A dash means the value is not listed here; it may have been measured.

{"structure": "CC(=O)N1N=C(c2ccccc2)OC1C(=O)N(C)CCc1ccccc1", "stereo": "stereo not drawn", "Leishmania in macrophages": 3.218, "CoaBC": 2.913}
{"structure": "CN1CCC2(CC1)C(=O)N(c1cccnc1)c1ccc(F)cc12", "CoaBC": -10.42}
{"structure": "CN1CCN(Cc2cccnc2)C(=O)C12CCN(CC1CCOC1)CC2", "stereo": "stereo not drawn", "CoaBC": -0.2463}
{"structure": "O=C(O)C(F)(F)F.O=C(O)C(F)(F)F.[H][C@@]12C[C@H](C)O[C@@]1([H])CCN(Cc1ccccn1)C2", "Leishmania in macrophages": 19.92}
{"structure": "CCC(C)Oc1ccc(CNCCNS(C)(=O)=O)cc1Cl", "stereo": "stereo not drawn", "Leishmania in macrophages": 32.76, "CoaBC": -6.796}
{"structure": "CN(C)[C@H]1C[C@@H](Cc2cc(CO)on2)C1(C)C", "Leishmania in macrophages": 18.85, "CoaBC": 15.91}
{"structure": "CC(=O)N1CCCC(C(=O)N2CCN(c3cnn(C)c(=O)c3)CC2)C1", "stereo": "stereo not drawn", "Leishmania in macrophages": -17.82, "CoaBC": 14.35}
{"structure": "CCC(=O)N1CCC2(COCc3c(C)nc(N(C)C)nc32)C1", "stereo": "stereo not drawn", "Leishmania in macrophages": 17.29, "CoaBC": -5.176}
{"structure": "Cc1noc(C)c1CN1CC[C@@H]2O[C@@H](COCC(C)C)CC[C@@H]21", "CoaBC": 2.157}
{"structure": "c1ccc(CCN2CCOC(CNc3cccnn3)C2)nc1", "stereo": "stereo not drawn", "Leishmania in macrophages": 23.71, "CoaBC": 3.345}
{"structure": "Cc1ccnc(NCc2cn3c(C)csc3n2)n1", "Leishmania in macrophages": 9.799, "CoaBC": 7.282}
{"structure": "CCc1n[nH]c(C2CN(Cc3nc(C4CC4)no3)CCO2)n1", "stereo": "stereo not drawn", "Leishmania in macrophages": -23.43, "CoaBC": 1.944}
{"structure": "COc1ccc(-c2noc([C@@H]3C[C@@H](O)CN3C3CCN(C)CC3)n2)cc1", "Leishmania in macrophages": 16.73, "CoaBC": 1.545}
{"structure": "CC(=O)c1ccc(N2CCC3(CCC(=O)N(CCCO)C3)CC2)nc1", "Leishmania in macrophages": -7.482, "CoaBC": -4.839}
{"structure": "Cc1nc(Cc2ccccc2)nc2sc(C(=O)O)c(C)c12", "Leishmania in macrophages": -36.96, "CoaBC": 0.6075}
{"structure": "CC1=C(C(=O)N(C)Cc2noc3c2CCCC3)C(C)NC(=O)N1", "stereo": "stereo not drawn", "Leishmania in macrophages": 38.49, "CoaBC": 3.704}
{"structure": "NC(=O)C1=NC2=NS(=O)(=O)c3ccccc3N2N1Cc1ccc(Cl)cc1", "Leishmania in macrophages": 30.98, "CoaBC": -0.861}
{"structure": "CN(C)C1CC2(CCN(C(=O)C3(C#N)CC3)CC2)c2ccccc21", "stereo": "stereo not drawn", "CoaBC": 3.695}
{"structure": "CN(C)c1ncnc2c1CCN(c1ccccc1)CC2", "Leishmania in macrophages": 29.45, "CoaBC": -43.65}
{"structure": "Cc1oc(-c2ccco2)nc1CN1CCc2cnc(C(C)C)nc2C1", "Leishmania in macrophages": -2.866, "CoaBC": 15.86}
{"structure": "CC1(C)CNC(=O)c2nc(C3CCCN(S(C)(=O)=O)C3)[nH]c2C1", "stereo": "stereo not drawn", "Leishmania in macrophages": 11.82, "CoaBC": 2.539}
{"structure": "CC(C)(C)n1cc(C2=CCN(CCNC(N)=O)CC2)cn1", "Leishmania in macrophages": 10.68, "CoaBC": 4.536}
{"structure": "CC(C)n1nc2c(cc1=O)CN(CCOc1ccccc1C#N)CC2", "Leishmania in macrophages": 28.36, "CoaBC": 1.392}
{"structure": "CC(C)CN1CC(c2nc(-c3cccc(F)c3)c[nH]2)CC1=O", "stereo": "stereo not drawn", "Leishmania in macrophages": -2.364, "CoaBC": -11.16}
{"structure": "O=C(O)C(F)(F)F.O=C1CC[C@]2(CC[C@@H](NCc3ccsc3)CC2)N1Cc1ccccc1", "Leishmania in macrophages": 20.92}
{"structure": "COCc1cccc(NCc2cccnc2)c1", "Leishmania in macrophages": 17.44, "CoaBC": -1.984}
{"structure": "O=C(O)C(F)(F)F.O=C(O)C(F)(F)F.O=C(O)C(F)(F)F.[H][C@@]12CN(Cc3ccsc3)C[C@]1([H])OCCN2CCN1CCCC1", "Leishmania in macrophages": 36.06}
{"structure": "COc1ccc(N2CCN(C(=O)COc3nccc(C)n3)CC2)cc1", "Leishmania in macrophages": 11.65, "CoaBC": 2.768}
{"structure": "CCC(c1ccccc1)N1CCN(CCO)CC1", "stereo": "stereo not drawn", "Leishmania in macrophages": -4.424, "CoaBC": 3.121}
{"structure": "CC(C)CN1CCCn2nc(CNC(=O)Cc3cccc(O)c3)cc2C1", "Leishmania in macrophages": 16.75, "CoaBC": 8.932}
{"structure": "O=C([C@H]1CCS(=O)(=O)[C@@H]2CN(Cc3ccc(F)cc3)C[C@H]12)N1CCCC1", "CoaBC": 3.089}
{"structure": "CN(C)c1ccnc(-c2ccnc3c2ccn3C)n1", "Leishmania in macrophages": 19.08, "CoaBC": 2.195}
{"structure": "CCn1ncc2c1C(COCC1CC1)N(Cc1nccs1)CC2.O=C(O)C(F)(F)F.O=C(O)C(F)(F)F", "stereo": "stereo not drawn", "Leishmania in macrophages": -4.311}
{"structure": "O=C1CCNc2cc3c(cc2CN1Cc1ccco1)OCO3", "Leishmania in macrophages": 4.499, "CoaBC": 2.421}
{"structure": "COc1ccc(C[C@@H]2CC[C@H](CN(C)C3CCN(C)CC3)O2)cc1", "Leishmania in macrophages": 8.587, "CoaBC": -11.65}
{"structure": "Cc1ncc(CN(C)C(=O)Nc2cccc(N3CCNC3=O)c2)s1", "Leishmania in macrophages": 6.725}
{"structure": "COc1ccccc1CNC(=O)Cn1nc(-c2ccc(F)cc2)oc1=O", "Leishmania in macrophages": 24.35, "CoaBC": 1.648}
{"structure": "O=C(NCCn1ccnc1)c1cccc(F)c1", "Leishmania in macrophages": -1.017, "CoaBC": 7.513}
{"structure": "O=C(O)C(F)(F)F.[H][C@@]12CCCO[C@]1([H])[C@H](NS(C)(=O)=O)CN2C(=O)c1ccccn1", "Leishmania in macrophages": 3.604}
{"structure": "CN(Cc1cc2n(n1)CCNC2)Cc1n[nH]c2c1CCCCC2", "Leishmania in macrophages": 33.41, "CoaBC": -1.794}

For reference, 3 entries once more:

structure,Leishmania in macrophages,CoaBC
Cc1noc(C)c1CN1CC[C@@H]2O[C@@H](COCC(C)C)CC[C@@H]21,-,2.157
CN(C)[C@H]1C[C@@H](Cc2cc(CO)on2)C1(C)C,18.85,15.91
CC(=O)N1CCCC(C(=O)N2CCN(c3cnn(C)c(=O)c3)CC2)C1 (stereo not drawn),-17.82,14.35

From ChEMBL document CHEMBL3988442, “University of Dundee, Small-Polar-MMV Screening Library” (2021).